# Reference: the supplement of paper PMC8728848
# This is one part of the list.
# Legend:
# Experiment in all cases: glycan array binding signal (z-score within array); higher = stronger binding
# Settings in all cases: glycan notation: IUPAC condensed, linker removed
# [1] = biological target: Gal3S6S(b1-4)GlcNAc
# Method in brief: (§1)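 The binding signal is a Z-score computed within each array. Data were drawn from 3228 arrays in the Consortium for Functional Glycomics database, restricted to those with a known protein sequence. Scores were averaged over arrays of the same protein sequence at different concentrations or buffers, and over linkers, and negative values can be taken as non-binding.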
# [2] = biological target: Gal3S6S(b1-4)GlcNAc6S
# Method in brief: as §1
# [3] = biological target: Gal4S(b1-4)GlcNAc
# Method in brief: as §1
# [4] = biological target: Gal4S6S(b1-4)GlcNAc
# Method in brief: as §1
# [5] = biological target: Gal6P(b1-4)GlcNAc
# Method in brief: as §1
# [6] = biological target: Gal6S(b1-3)GlcNAc
# Method in brief: as §1
# [7] = biological target: Gal6S(b1-3)GlcNAc6S
# Method in brief: as §1
# [8] = biological target: Gal6S(b1-4)Glc
# Method in brief: as §1
# [9] = biological target: Gal6S(b1-4)Glc6S
# Method in brief: as §1
# [10] = biological target: Gal6S(b1-4)GlcNAc
# Method in brief: as §1
# [11] = biological target: Gal6S(b1-4)GlcNAc6S
# Method in brief: as §1
# [12] = biological target: GalNAc(a1-3)Gal
# Method in brief: as §1
# [13] = biological target: GalNAc(a1-3)GalNAc
# Method in brief: as §1
# [14] = biological target: GalNAc(a1-3)GalNAc(b1-3)Gal(a1-4)Gal(b1-4)Glc
# Method in brief: as §1
# [15] = biological target: GalNAc(a1-3)GalNAc(b1-3)Gal(a1-4)Gal(b1-4)GlcNAc
# Method in brief: as §1
# [16] = biological target: GalNAc(b1-3)Gal
# Method in brief: as §1
# [17] = biological target: GalNAc(b1-3)Gal(a1-4)Gal(b1-4)GlcNAc
# Method in brief: as §1
# [18] = biological target: GalNAc(b1-3)Gal(a1-4)Gal(b1-4)GlcNAc(b1-3)Gal(b1-4)Glc
# Method in brief: as §1
# [19] = biological target: GalNAc(b1-3)Gal(a1-6)Gal(b1-4)Glc
# Method in brief: as §1
# [20] = biological target: GalNAc(b1-3)GalNAc
# Method in brief: as §1
# [21] = biological target: GalNAc(b1-3)GlcNAc
# Method in brief: as §1
# [22] = biological target: GalNAc(b1-4)Gal(b1-4)Glc
# Method in brief: as §1
# [23] = biological target: GalNAc(b1-4)GlcNAc
# Method in brief: as §1
# [24] = biological target: GalNAc(b1-4)GlcNAc(b1-2)Man
# Method in brief: as §1
# [25] = biological target: GalNAc(b1-4)GlcNAc(b1-2)Man(a1-3)[GalNAc(b1-4)GlcNAc(b1-2)Man(a1-6)]Man(b1-4)GlcNAc(b1-4)GlcNAc
# Method in brief: as §1
# [26] = biological target: GalNAc(b1-4)GlcNAc(b1-3)GalNAc(b1-4)GlcNAc
# Method in brief: as §1
# [27] = biological target: GalNAc(b1-4)GlcNAc6S
# Method in brief: as §1
# [28] = biological target: GalNAc(b1-6)GalNAc
# Method in brief: as §1
# [29] = biological target: GalNAc3S(b1-4)GlcNAc
# Method in brief: as §1
# [30] = biological target: GalNAc3S(b1-4)GlcNAc3S
# Method in brief: as §1
# [31] = biological target: GalNAc3S(b1-4)[Fuc(a1-3)]GlcNAc
# Method in brief: as §1
# [32] = biological target: GalNAc4S6S(b1-4)GlcNAc
# Method in brief: as §1
# [33] = biological target: GalNAc6S(b1-4)GlcNAc
# Method in brief: as §1
# [34] = biological target: Glc(a1-4)Glc
# Method in brief: as §1
# [35] = biological target: Glc(a1-4)Glc(a1-4)Glc(a1-4)Glc
# Method in brief: as §1
# [36] = biological target: Glc(a1-6)Glc(a1-6)Glc
# Method in brief: as §1
# [37] = biological target: Glc(a1-6)Glc(a1-6)Glc(a1-6)Glc
# Method in brief: as §1
# [38] = biological target: Glc(b1-4)Glc
# Method in brief: as §1
binder,measurement,setting,value
B3GalT2 (Rattus norvegicus) (protein) LMLQWRRRHCCFAKMSWNAKRSLFRTHLMGVLSLVFLFAMFLFFNHHDWLPGRPGFKENPVTYTFRGFRSTKTETNQSSLRNIWKEVVPQTLRPQTATNSNNTELSPQGVTGLENTLSANGSIYNEKGTGHPNSYHFKYIINEPEKCQEKSPFLILLIAAEPGQIEARRAIRQTWGNETLAPGIQITRIFLLGISIKLNGYLQHAIQEESIQYHDIIQQEYLDTYYNLTIKTLMGMNWVATYCPHTPYVMKTDSDMFVNTEYLIHKLLKPDLPPRHNYFTGYLMRGYAPNRNKDSKWYMPPDLYPSERYPVFCSGTGYVFSGDLAEKIFKVSLGIRRLHLEDVYVGICLAKLRVDPVPPPNEFVFNHWRVSYSSCKYSHLITSHQFQPSELIKYWNHLQQNKHNACVNAAKEKAGRYRHRKLH,glycan array binding signal (z-score),[1],0.892
same,glycan array binding signal (z-score),[2],1.33
same,glycan array binding signal (z-score),[3],0.463
same,glycan array binding signal (z-score),[4],1.63
same,glycan array binding signal (z-score),[5],-0.663
same,glycan array binding signal (z-score),[6],2.69
same,glycan array binding signal (z-score),[7],0.576
same,glycan array binding signal (z-score),[8],0.439
same,glycan array binding signal (z-score),[9],0.992
same,glycan array binding signal (z-score),[10],-0.022
same,glycan array binding signal (z-score),[11],1.34
same,glycan array binding signal (z-score),[12],0.001
same,glycan array binding signal (z-score),[13],-0.798
same,glycan array binding signal (z-score),[14],-0.606
same,glycan array binding signal (z-score),[15],1.41
same,glycan array binding signal (z-score),[16],-0.173
same,glycan array binding signal (z-score),[17],0.82
same,glycan array binding signal (z-score),[18],-0.596
same,glycan array binding signal (z-score),[19],-0.464
same,glycan array binding signal (z-score),[20],1.69
same,glycan array binding signal (z-score),[21],1.05
same,glycan array binding signal (z-score),[22],-0.492
same,glycan array binding signal (z-score),[23],0.342
same,glycan array binding signal (z-score),[24],1.72
same,glycan array binding signal (z-score),[25],-0.857
same,glycan array binding signal (z-score),[26],-0.185
same,glycan array binding signal (z-score),[27],-0.243
same,glycan array binding signal (z-score),[28],0.126
same,glycan array binding signal (z-score),[29],0.6
same,glycan array binding signal (z-score),[30],0.014
same,glycan array binding signal (z-score),[31],0.413
same,glycan array binding signal (z-score),[32],1.11
same,glycan array binding signal (z-score),[33],-0.143
same,glycan array binding signal (z-score),[34],-0.621
same,glycan array binding signal (z-score),[35],-0.478
same,glycan array binding signal (z-score),[36],-0.764
same,glycan array binding signal (z-score),[37],-0.622
same,glycan array binding signal (z-score),[38],-0.037

# No new results follow: an excerpt of the list.
binder,measurement,setting,value
B3GalT2 (Rattus norvegicus) (protein) LMLQWRRRHCCFAKMSWNAKRSLFRTHLMGVLSLVFLFAMFLFFNHHDWLPGRPGFKENPVTYTFRGFRSTKTETNQSSLRNIWKEVVPQTLRPQTATNSNNTELSPQGVTGLENTLSANGSIYNEKGTGHPNSYHFKYIINEPEKCQEKSPFLILLIAAEPGQIEARRAIRQTWGNETLAPGIQITRIFLLGISIKLNGYLQHAIQEESIQYHDIIQQEYLDTYYNLTIKTLMGMNWVATYCPHTPYVMKTDSDMFVNTEYLIHKLLKPDLPPRHNYFTGYLMRGYAPNRNKDSKWYMPPDLYPSERYPVFCSGTGYVFSGDLAEKIFKVSLGIRRLHLEDVYVGICLAKLRVDPVPPPNEFVFNHWRVSYSSCKYSHLITSHQFQPSELIKYWNHLQQNKHNACVNAAKEKAGRYRHRKLH,glycan array binding signal (z-score),[18],-0.596
same,glycan array binding signal (z-score),[19],-0.464
